Data as given in paper PMC6113293, “Phosphorylation of ULK1 affects autophagosome fusion and links chaperone-mediated autophagy to macroautophagy” (Nature Communications, 2018).
Where a chain is given by its changes, count along the chain named. No constants are given. Whether binding was seen depends on the method and setting. For some of these results: Binding seen in cells or lysates may run through a third protein. Some results given as binding are weak or reduced against the parent protein; the word gives no strength. For some of these results: Sequences can lack the tags named with a protein. Values belong to the molecule of their own block, whether it stands above or below them.

Amino acid sequences for entries named in this document (tags omitted).
UniProt Q14457: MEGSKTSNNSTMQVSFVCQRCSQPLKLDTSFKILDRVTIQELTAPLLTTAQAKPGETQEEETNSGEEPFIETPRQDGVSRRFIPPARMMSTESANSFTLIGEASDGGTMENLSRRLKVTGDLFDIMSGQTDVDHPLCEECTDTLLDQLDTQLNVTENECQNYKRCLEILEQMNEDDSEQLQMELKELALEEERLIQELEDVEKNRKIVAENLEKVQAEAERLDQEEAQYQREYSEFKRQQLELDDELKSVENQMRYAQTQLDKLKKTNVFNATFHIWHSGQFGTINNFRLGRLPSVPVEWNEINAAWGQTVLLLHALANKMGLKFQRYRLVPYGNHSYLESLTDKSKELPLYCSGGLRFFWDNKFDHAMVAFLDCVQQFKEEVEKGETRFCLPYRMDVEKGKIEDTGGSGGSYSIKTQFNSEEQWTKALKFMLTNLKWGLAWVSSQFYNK
UniProt P11142: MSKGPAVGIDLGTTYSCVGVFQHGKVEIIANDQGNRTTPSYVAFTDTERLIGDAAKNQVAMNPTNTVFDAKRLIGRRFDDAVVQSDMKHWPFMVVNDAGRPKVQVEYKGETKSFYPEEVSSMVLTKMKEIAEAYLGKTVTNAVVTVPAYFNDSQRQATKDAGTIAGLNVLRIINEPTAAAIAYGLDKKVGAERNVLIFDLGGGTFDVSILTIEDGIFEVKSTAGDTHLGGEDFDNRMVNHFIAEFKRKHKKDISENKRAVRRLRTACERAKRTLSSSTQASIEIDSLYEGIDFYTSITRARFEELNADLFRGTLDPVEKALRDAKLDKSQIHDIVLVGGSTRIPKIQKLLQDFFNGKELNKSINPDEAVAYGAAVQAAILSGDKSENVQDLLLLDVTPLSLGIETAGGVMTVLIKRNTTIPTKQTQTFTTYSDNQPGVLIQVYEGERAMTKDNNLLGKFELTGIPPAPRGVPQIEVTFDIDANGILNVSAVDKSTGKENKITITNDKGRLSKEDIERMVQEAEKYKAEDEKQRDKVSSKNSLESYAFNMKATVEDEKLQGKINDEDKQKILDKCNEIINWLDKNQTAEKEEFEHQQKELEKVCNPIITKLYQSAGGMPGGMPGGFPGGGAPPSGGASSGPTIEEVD

Assays:
GST-ULK1 = target: T1, GST-ULK1 (UniProt O75385); assay: pull-down; GST-ULK1 (or GST) co-transfected with the tagged partner in HEK293T; lysate pulled down with glutathione agarose at 4 °C overnight; western blot
T1 sequence: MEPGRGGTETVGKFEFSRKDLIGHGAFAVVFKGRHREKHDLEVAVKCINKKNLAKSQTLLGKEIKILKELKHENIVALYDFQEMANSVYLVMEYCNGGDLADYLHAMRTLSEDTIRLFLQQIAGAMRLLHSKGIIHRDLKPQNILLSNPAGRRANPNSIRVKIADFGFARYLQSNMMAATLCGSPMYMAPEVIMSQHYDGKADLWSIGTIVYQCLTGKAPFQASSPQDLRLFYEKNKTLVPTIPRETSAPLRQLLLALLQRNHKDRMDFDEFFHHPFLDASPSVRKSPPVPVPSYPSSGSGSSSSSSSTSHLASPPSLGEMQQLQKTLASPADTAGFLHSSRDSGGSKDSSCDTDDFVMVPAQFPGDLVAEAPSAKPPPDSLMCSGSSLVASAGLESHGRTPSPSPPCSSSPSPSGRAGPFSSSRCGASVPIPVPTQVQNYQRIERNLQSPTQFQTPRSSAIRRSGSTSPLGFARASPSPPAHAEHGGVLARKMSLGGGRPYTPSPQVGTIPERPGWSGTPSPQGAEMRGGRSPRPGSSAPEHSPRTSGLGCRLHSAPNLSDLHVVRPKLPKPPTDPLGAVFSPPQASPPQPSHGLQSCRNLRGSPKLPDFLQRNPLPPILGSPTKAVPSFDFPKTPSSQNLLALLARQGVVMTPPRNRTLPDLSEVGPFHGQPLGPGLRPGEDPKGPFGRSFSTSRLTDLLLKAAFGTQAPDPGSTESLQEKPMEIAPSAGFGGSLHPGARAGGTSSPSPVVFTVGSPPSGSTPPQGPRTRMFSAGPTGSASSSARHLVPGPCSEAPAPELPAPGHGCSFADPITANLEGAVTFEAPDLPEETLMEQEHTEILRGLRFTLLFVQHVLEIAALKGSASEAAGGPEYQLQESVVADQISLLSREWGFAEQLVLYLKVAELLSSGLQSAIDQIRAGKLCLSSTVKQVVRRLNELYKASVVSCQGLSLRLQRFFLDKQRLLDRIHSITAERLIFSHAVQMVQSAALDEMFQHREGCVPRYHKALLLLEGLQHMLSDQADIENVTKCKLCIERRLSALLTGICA

[1] = target: T2, ULK1 (endogenous) (human (endogenous in HeLa)) (UniProt O75385); assay: co-IP; endogenous proteins, HeLa lysate; IP with anti-ULK1 or anti-STX17 antibody or IgG; western blot; cells also serum-starved, treated with CQ, PMA or GÖ6983, or transfected with Myc-ULK1 variants
T2 sequence: T1 sequence

Myc-ULK1 S423A [2] = target: T3, Myc-ULK1 S423A (UniProt O75385); assay: co-IP; both partners tagged and co-transfected into HEK293T for 24 h; IP with anti-Myc antibody (IgG or Myc control); western blot
T3 sequence: T1 sequence with S423A

Myc-ULK1 S423D [3] = target: T4, Myc-ULK1 S423D (UniProt O75385); assay: as above
T4 sequence: T1 sequence with S423D

Myc-ULK1 WT [4] = target: T5, Myc-ULK1 WT (UniProt O75385); assay: as above
T5 sequence: T1 sequence

Myc-ULK1 S423A [5] = target: T3, Myc-ULK1 S423A; assay: co-IP; semi-endogenous: Myc-ULK1 variants transfected, endogenous partners detected in the IP by their antibodies
Myc-ULK1 S423D [6] = target: T4, Myc-ULK1 S423D; assay: as above
[7] = target: T6, GST-ULK1 279–525 (truncation, in mammalian cells) (UniProt O75385); assay: pull-down; GST-ULK1 truncations transfected into HeLa for 24 h; glutathione beads; endogenous STX17 detected with STX17 antibody
T6 sequence: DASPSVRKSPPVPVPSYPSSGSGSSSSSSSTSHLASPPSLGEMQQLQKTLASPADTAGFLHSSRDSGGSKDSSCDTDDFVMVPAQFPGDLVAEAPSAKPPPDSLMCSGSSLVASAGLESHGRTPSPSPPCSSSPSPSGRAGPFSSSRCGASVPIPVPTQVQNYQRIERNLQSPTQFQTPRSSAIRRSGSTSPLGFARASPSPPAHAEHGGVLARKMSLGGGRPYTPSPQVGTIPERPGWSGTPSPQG

Myc-ULK1 WT [8] = target: T5, Myc-ULK1 WT; assay: co-IP; semi-endogenous: Myc-ULK1 variants transfected, endogenous partners detected in the IP by their antibodies
[9] = target: T7, GST-ULK1 279–525 (from bacteria) (UniProt O75385); assay: in vitro binding assay; recombinant GST-ULK1 279–525 (from bacteria) and His-PKCα (from insects); both purified
T7 sequence: T6 sequence

[10] = target: T8, STX17 (endogenous) (human (endogenous in HeLa)), P56962; assay: co-IP; endogenous proteins, HeLa lysate; IP with anti-ULK1 or anti-STX17 antibody or IgG; western blot; cells also serum-starved, treated with CQ, PMA or GÖ6983, or transfected with Myc-ULK1 variants; conditions: remark: other sources report otherwise
T8 chain: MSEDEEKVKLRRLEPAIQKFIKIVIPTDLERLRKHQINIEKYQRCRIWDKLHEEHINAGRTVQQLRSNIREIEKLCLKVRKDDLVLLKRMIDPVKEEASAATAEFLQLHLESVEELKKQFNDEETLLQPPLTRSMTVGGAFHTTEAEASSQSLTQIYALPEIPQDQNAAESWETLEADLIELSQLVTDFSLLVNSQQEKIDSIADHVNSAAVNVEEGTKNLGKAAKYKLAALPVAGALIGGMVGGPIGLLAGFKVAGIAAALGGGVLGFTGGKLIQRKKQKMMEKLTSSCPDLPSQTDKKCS

Myc-ULK1 WT, O75385 = target: T9, Myc-ULK1 WT, O75385; assay: co-IP; both partners tagged and co-transfected into HEK293T for 24 h; IP with anti-Myc antibody (IgG or Myc control); western blot; conditions: remark: other sources report otherwise
T9 chain: T1 sequence

Molecule: PKCα (endogenous) (from UniProt P17252 1-672) (enzyme)
binding [1]: binds

Molecule: Flag-BECN1 (from UniProt Q14457 1-450)
binding (Myc-ULK1 S423A [2]): binds
binding (Myc-ULK1 S423D [3]): binds
binding (Myc-ULK1 WT [4]): binds

Molecule: HA-PKCα (from UniProt P17252 1-672) (enzyme)
binding (GST-ULK1): binds

Molecule: STX17 (endogenous) (from UniProt P56962 1-302)
binding (Myc-ULK1 S423A [5]): binds
binding (Myc-ULK1 S423D [6]): binds
binding [7]: binds

Molecule: BECN1 (endogenous) (from UniProt Q14457 1-450)
binding (Myc-ULK1 S423A [5]): binds
binding (Myc-ULK1 S423D [6]): binds
binding (Myc-ULK1 WT [8]): binds

Molecule: His-PKCα (from insects) (from UniProt P17252 1-672) (enzyme)
binding [9]: binds

B1: VAMP8 (endogenous), Q9BV40 1-100 (protein)
chain: MEEASEGGGNDRVRNLQSEVEGVKNIMTQNVERILARGENLEHLRNKTEDLEATSEHFKTTSQKVARKFWWKNVKMIVLICVIVFIIILFIVLFATGAFS
binding [10]: binds

Other lines, results leading:

binding (GST-ULK1): binds
Molecule: GFP-STX17 157–275 (from UniProt P56962 157-275) (domain or fragment)

binding [1]: binds
Molecule: HSC70 (endogenous) (from UniProt P11142 1-646)

binding (Myc-ULK1 WT, O75385): binds
B2: Flag-SBP-STX17, P56962 1-302 (protein)
chain: T8 chain
